Experimental data reported in patent US5594100A, “Epitope for prevention of type I diabetes” (Regents of the University of Colorado, priority 1995, dated 1997).
“Also recorded” adds a separate entry of the source. At least one peptide structure holds a part that was inferred or is arguable (an end, a ring closure or a residue). No end group written: not given here.

How the values were obtained:
[1] = tested on: insulin-specific PD12 T cell clones; assay: Proliferation assay of insulin-specific PD12 T cell clones with overlapping insulin peptides; assay type: cell-based, NOD mouse; details: six PD12 clones
[2] = tested on: female NOD mice; assay: Intranasal administration of peptide, diabetes incidence in NOD mice; assay type: in vivo, NOD mouse
[3] = tested on: NOD islet cell-specific T cell line PD12-4 (IC); assay: Proliferation assay of uncloned islet-specific T cell lines with insulin peptides; assay type: cell-based, NOD mouse; details: PD12-4(IC) and other islet-specific lines; 50 μg/ml peptide
[4] = tested on: inguinal and periaortic lymph node cells; assay: Primed lymph node proliferation assay of peptide immunized mice; assay type: cell-based, NOD mouse; details: 50 μg peptide in CFA at base of tail; 33 μg/ml peptide in culture, 5 days
[5] = tested on: female NOD mice; assay: Subcutaneous injection of peptide in IFA, diabetes incidence in NOD mice; assay type: in vivo, NOD mouse; details: single s.c. 100 μg in IFA, 4 week old females

Sequence	potency in stimulation of the clones relative to isoform II B:9-23 [1]	onset of diabetes ([2]; intranasal 40 μg on three consecutive days, 12 week old females, vs TT:830-843, P=0.0020 Mann-Whitney U-test)	mice remaining free of diabetes out to 30 weeks of age ([2]; intranasal 40 μg x3 days, 12 week old females, n=11)	incidence of diabetes ([2]; intranasal in saline, relative to control peptide TT:830-843)	proliferative response of uncloned islet-specific T cell lines to peptide [3]	T cell response of primed lymph node cells to the immunizing peptide [4]	onset of diabetes ([5]; vs TT:830-843+IFA, P=0.0168 Mann-Whitney U-test)	incidence (frequency) of diabetes ([5]; vs TT:830-843 P=0.0055, vs colony P<0.00001 (Fisher's exact))	proliferative response of insulin-specific T cell clones to peptide ([1]; 50 μg/ml (26.3 μM) synthetic insulin peptides, 72 hours, [3H]thymidine)
PHLVEALYLVCGERG [B:9-23 from insulin isoform I]	of equal potency	–	–	–	–	–	–	–	–
SHLVEALYLVCGERG [B:9-23, Ser-His-Leu-Val-Glu-Ala-Leu-Tyr-Leu-Val-Cys-Gly-Glu-Arg-Gly]	–	delayed onset of diabetes; also recorded: delay in the onset of diabetes	5 of the 11	decrease in the incidence of diabetes	directed entirely toward B:9-23	vigorous T cell responses	delay in the onset; also recorded: delayed onset	decrease in the incidence of diabetes; also recorded: reduced frequency; also recorded: greatly reduced incidence of diabetes	all six clones responded only to the peptide
